This note sets out measurements from ChEMBL document CHEMBL4303122, “Identification of potential treatments for COVID-19 through artificial intelligence-enabled phenomic analysis of human cells infected with SARS-CoV-2” (2020).

Whole data set: some 1,600 compounds, median “Hit score” near 0.13, cut for the highest 2% near 0.46. Some of the results follow.

The experiment has as its system SARS-CoV-2. Description: Antiviral activity against SARS-CoV-2 (USA-WA1/2020 strain) measured by imaging in HRCE cells at MOI 0.4 after 96 hrs (reported as hit score from 0-1 for on-disease vs off-disease activity: scores >0.6 considered hits). The format is functional, Homo sapiens.
Turning to `C[C@@H]1CC[C@H]2C(C)(C)[C@H]3C[C@@]12CC[C@@]3(C)O` [CEDROL], the Hit score stood at 0.05802.

Regarding `O=C(OCC(O)CO)c1ccccc1Nc1ccnc2c(C(F)(F)F)cccc12` (stereo not given) [FLOCTAFENINE], the Hit score is recorded as 0.3441. In the case of `CC(=O)NC(CCC(N)=O)C(=O)O` (stereo not given) it was 0.2051; in that of `CC(=O)O[C@]1(C(C)=O)CC[C@H]2[C@@H]3C=C(Cl)C4=CC(=O)CC[C@]4(C)[C@H]3CC[C@@]21C` [CHLORMADINONE ACETATE], 0.249. In the case of `CNC(C)CCC=C(C)C.CNC(C)CCC=C(C)C.O=C(O)[C@@H](O)[C@H](O)[C@H](O)[C@@H](O)C(=O)O` [ISOMETHEPTENE MUCATE] it was 0.06837.

On to `NCC1(CC(=O)O)CCCCC1` [GABAPENTIN], for which the Hit score is on record as 0.1022.

`O=c1ncnc2n([C@H]3O[C@@H](CO)[C@H](O)[C@@H]3O)[nH]cc1-2` [ALLOPURINOL RIBOSIDE] showed a Hit score of 0.1953. Consider `C/C(O)=C(\C#N)C(=O)Nc1ccc(C(F)(F)F)cc1` [TERIFLUNOMIDE], for which the Hit score is recorded as 0.133. The figure for `N[C@@H](CC(=O)N1CCn2c(nnc2C(F)(F)F)C1)Cc1cc(F)c(F)cc1F` [SITAGLIPTIN] is 0.1962. In the case of `CN(C)C(=O)N[C@H]1CC[C@H](CCN2CCN(c3cccc(Cl)c3Cl)CC2)CC1` [CARIPRAZINE] it was 0.1969. In the case of `O=C(O[C@H]1C[C@H]2CC[C@@H](C1)[N+]21CCCC1)C(O)(c1ccccc1)c1ccccc1` [TROSPIUM] it was 0.08693; in that of `CC(O)(CS(=O)(=O)c1ccc(F)cc1)C(=O)Nc1ccc(C#N)c(C(F)(F)F)c1` (stereo not given) [BICALUTAMIDE], 0.2724. In the case of `N=C(N)N1CCc2ccccc2C1` [DEBRISOQUIN], the Hit score turned out to be 0.1524.

For the molecule `CC(=O)/N=c1/sc(S(N)(=O)=O)nn1C` [METHAZOLAMIDE], the Hit score came out at 0.146. The figure for `CC1(C)S[C@@H]2[C@H](NC(=O)Cc3ccccc3)C(=O)N2[C@H]1C(=O)O` [PENICILLIN G] is 0.164; for `COCCCOc1cc(C[C@@H](C[C@H](N)[C@@H](O)C[C@H](C(=O)NCC(C)(C)C(N)=O)C(C)C)C(C)C)ccc1OC` it is 0.2097. In the case of `CCCc1nc2c(C)cc(-c3nc4ccccc4n3C)cc2n1Cc1ccc(-c2ccccc2C(=O)O)cc1` it was 0.1182; in that of `CC(C)N(CCc1c[nH]c2ccccc12)C(C)C`, 0.03523; in that of `CCOC(=O)N1CSC[C@H]1C(=O)O` [TELMESTEINE], 0.3645. The figure for `CC[N+](CC)(CCNC(=O)C(=O)NCC[N+](CC)(CC)Cc1ccccc1Cl)Cc1ccccc1Cl` [AMBENONIUM] is 0.1681. `CC(=O)O.CCCC[C@H](NC(C)=O)C(=O)N[C@H]1CC(=O)NCCCC[C@@H](C(=O)O)NC(=O)[C@H](Cc2c[nH]c3ccccc23)NC(=O)[C@H](CCCNC(=N)N)NC(=O)[C@@H](Cc2ccccc2)NC(=O)[C@H](Cc2c[nH]cn2)NC1=O` [BREMELANOTIDE ACETATE]: the Hit score came to 0.08694.

In the case of `Cc1ccc(C(=O)C(C)CN2CCCCC2)cc1` (stereo not given) [TOLPERISONE], the Hit score came to 0.08796. Molecule `Cc1ncsc1CCCl` [CLOMETHIAZOLE] registered a Hit score of 0.1545. The figure for `CNCC[C@@H](Oc1ccccc1C)c1ccccc1` [ATOMOXETINE] is 0.09173; for `CC(C)(O)CNc1nc(Nc2ccnc(C(F)(F)F)c2)nc(-c2cccc(C(F)(F)F)n2)n1` [ENASIDENIB] it is 0.1439. For `COCCCOc1ccnc(C[S+]([O-])c2nc3ccccc3[nH]2)c1C` (stereo not given) [RABEPRAZOLE], the Hit score worked out at 0.0917.

`Cc1cc(Nc2ncc(Cl)c(Nc3ccccc3S(=O)(=O)C(C)C)n2)c(OC(C)C)cc1C1CCNCC1` [CERITINIB] registered a Hit score of 0.03368. Take `CC(Cc1ccc(O)c(O)c1)C(C)Cc1ccc(O)c(O)c1` (stereo not given) [NORDIHYDROGUAIARETIC ACID]: the Hit score is given as 0.1128. As to `C[C@@H](C(=O)O)c1ccc(-c2ccccc2)c(F)c1` [TARENFLURBIL], the Hit score was determined as 0.1438. On to `C=C[C@@H]1C[C@]1(NC(=O)[C@@H]1C[C@@H]2CN1C(=O)[C@H](C(C)(C)C)NC(=O)O[C@@H]1C[C@H]1CCCCCc1nc3ccc(OC)cc3nc1O2)C(=O)NS(=O)(=O)C1CC1` [GRAZOPREVIR ANHYDROUS], for which the Hit score was 0.01454. The figure for `c1cnc(N2CCN(Cc3ccc4c(c3)OCO4)CC2)nc1` [PIRIBEDIL] is 0.08373; for `COc1cc2c(cc1OC)CC(=O)N(CCCN(C)C[C@H]1Cc3cc(OC)c(OC)cc31)CC2` [IVABRADINE] it is 0.05115; for `CS(=O)(=O)c1ccc(-c2cn3ccccc3n2)cc1` [ZOLIMIDINE] it is 0.1274. The figure for `CCCCCCCCCCCCOCCOCCOCCOCCOCCOCCOCCOCCOCCO` is 0.154; for `C=C1c2c(Cl)ccc(O)c2C(=O)C2=C(O)[C@]3(O)C(=O)C(C(N)=O)=C(O)[C@@H](N(C)C)[C@@H]3[C@@H](O)[C@H]12.O=C(O)c1cc(S(=O)(=O)O)ccc1O` [MECLOCYCLINE SULFOSALICYLATE] it is 0.1338.

The molecule `C[C@]12C=CC(=O)C=C1CC[C@@H]1[C@@H]2[C@@H](O)C[C@@]2(C)[C@H]1CC[C@]2(O)C(=O)CO` [PREDNISOLONE] returned a Hit score of 0.03404. The figure for `Cc1ccc(NC(=O)c2ccc(CN3CCN(C)CC3)cc2)cc1Nc1nccc(-c2cccnc2)n1` [IMATINIB] is 0.06765; for `CC(C)C(=O)Oc1ccc(CO)cc1[C@H](CCN(C(C)C)C(C)C)c1ccccc1` [FESOTERODINE] it is 0.03098; for `CCc1cc2c(cc1N1CCC(N3CCOCC3)CC1)C(C)(C)c1[nH]c3cc(C#N)ccc3c1C2=O` [ALECTINIB] it is 0.09966. In the case of `CCc1c2c(nc3ccc(O)cc13)-c1cc3c(c(=O)n1C2)COC(=O)[C@]3(O)CC` [7-ETHYL-10-HYDROXYCAMPTOTHECIN] it was 0.3015.

Turning to `COc1ccc(-c2cc(=S)ss2)cc1` [ANETHOLTRITHION], the Hit score is reported as 0.1126.

For the molecule `C1COC(NC(C2CC2)C2CC2)=N1` [RILMENIDINE], the Hit score is 0.1025. In the case of `C#CCN[C@@H]1CCc2ccccc21` [RASAGILINE] it was 0.177. In the case of `CCOc1nc2cccc(C(=O)OCc3oc(=O)oc3C)c2n1Cc1ccc(-c2ccccc2-c2noc(=O)[nH]2)cc1` [AZILSARTAN MEDOXOMIL] it was 0.1452; in that of `O=C(O)c1cn(C2CC2)c2cc(N3CCNCC3)c(F)cc2c1=O` [CIPROFLOXACIN], 0.1255; in that of `CCc1nc(N)nc(N)c1-c1ccc(Cl)cc1` [PYRIMETHAMINE], 0.2473. The figure for `CC(C)NCC(O)COc1ccc(CCOCC2CC2)cc1` (stereo not given) [BETAXOLOL] is 0.2742. `C1CCC(C(CC2CCCCN2)C2CCCCC2)CC1` (stereo not given) [PERHEXILINE]: the Hit score was 0.1976. In turn, `COc1cc(C(=O)NCc2ccc(OCCN(C)C)cc2)cc(OC)c1OC` [TRIMETHOBENZAMIDE] showed a Hit score of 0.1981. The figure for `CCCN1CCCC[C@H]1C(=O)Nc1c(C)cccc1C` [ROPIVACAINE] is 0.03443; for `Cc1ccc2c(c1)c1c3n2CCNC3CCC1` (stereo not given) [PIRLINDOLE] it is 0.1098. In the case of `CC1=NN(c2ccccc2)C(=O)C1` [EDARAVONE], the Hit score was found to be 0.13. The molecule `N#C/C(=C\c1cn(-c2ccccc2)c2ccccc12)C(=O)O` displayed a Hit score of 0.06944. In the case of `Cn1cnc2c1c(=O)[nH]c(=O)n2C` [THEOBROMINE] it was 0.2208; in that of `CCN(CC)CCNC(=O)c1cc(Cl)c(N)cc1OC` [METOCLOPRAMIDE], 0.1755; in that of `Cc1sc(C)c(C(=O)NC2(c3ccc(C(=O)O)cc3)CC2)c1Cc1ccc(C(F)(F)F)cc1`, 0.1909.

Take `OCc1cccnc1` [NICOTINYL ALCOHOL]: the Hit score was found to be 0.2034.

As for `CC1=CC(=O)C(C(C)C)=CC1=O` [THYMOQUINONE], the Hit score turned out to be 0.1059. As for `COc1ccccc1Oc1c(NS(=O)(=O)c2ccc(C(C)(C)C)cc2)nc(-c2ncccn2)nc1OCCO` [BOSENTAN], the Hit score is 0.2095. For `COc1cc(C(=S)N2CCOCC2)cc(OC)c1OC` [TRITIOZINE], the Hit score turned out to be 0.1798. The figure for `CC(C)[N+](C)(CCOC(=O)C1c2ccccc2Oc2ccccc21)C(C)C` [PROPANTHELINE] is 0.1356; for `CN1CCC[C@@H]1Cc1c[nH]c2ccc(CCS(=O)(=O)c3ccccc3)cc12` it is 0.1607; for `CN(C)CCC=C1c2ccccc2COc2ccccc21` [DOXEPIN] it is -0.01345. The figure for `CC(C)Nc1cccnc1N1CCN(C(=O)c2cc3cc(NS(C)(=O)=O)ccc3[nH]2)CC1` [DELAVIRDINE] is 0.1383; for `N#Cc1ccc(C2CCCc3cncn32)cc1` (stereo not given) [FADROZOLE] it is -0.02831.

The molecule `C#Cc1cccc(Nc2ncnc3cc(OCCOC)c(OCCOC)cc23)c1` [ERLOTINIB] showed a Hit score of 0.1311. The figure for `CO/C1=C\C(C)=C\[C@@H](C)[C@@H](O)[C@@H](C)C/C(C)=C/C=C/[C@H](OC)[C@@H]([C@@H](C)[C@@H](O)[C@H](C)[C@@]2(O)C[C@@H](O)[C@H](C)[C@@H](C(C)C)O2)OC1=O` [BAFILOMYCIN A1] is 0.2403; for `C/C(=C(/CCO)SSCC1CCCO1)N(C=O)Cc1cnc(C)nc1N` (stereo not given) [FURSULTIAMINE] it is 0.06698. In the case of `CC[C@@]1(O)C(=O)OCc2c1cc1n(c2=O)Cc2c-1nc1ccccc1c2CCNC(C)C` [BELOTECAN] it was 0.3416; in that of `CC[C@H]1OC(=O)[C@H](C)[C@@H](O[C@H]2C[C@@](C)(OC)[C@@H](O)[C@H](C)O2)[C@H](C)[C@@H](O[C@@H]2O[C@H](C)C[C@H](N(C)C)[C@H]2O)[C@](C)(O)C[C@@H](C)/C(=N\OCOCCOC)[C@H](C)[C@@H](O)[C@]1(C)O` [ROXITHROMYCIN], 0.1457.
